From patent publication US20170020890A1, “PHARMACEUTICAL COMPOSITION COMPRISING FATTY ACID DERIVATIVE” (SUCAMPO AG, priority 2015, published 2017)

Assay: Sensory test (sweetness) of sweetening agents in MCT
Set-up: key: showing the desired sweetness (+); nor show the desired sweetness (−)
Conditions: mixture in MCT

With thaumatin the “Sensory test (sweetness)” value (Example 1) was “−” and the “Sensory test (sweetness)” value (Example 5) was “−”.
